The supplement of paper PMC12819154, “High-throughput peptide-centric local stability assay extends protein–ligand identification to membrane proteins, tissues and bacteria” (Nature Structural & Molecular Biology, 2025)
Some of the results follow. Most entries show no effect beyond the scatter of the controls.

The chains behind the UniProt entries cited, without tags or fusion partners. Where a name states a change or a piece, a line headed by the entry shows the natural chain unless it says otherwise.
UniProt Q9JJL3: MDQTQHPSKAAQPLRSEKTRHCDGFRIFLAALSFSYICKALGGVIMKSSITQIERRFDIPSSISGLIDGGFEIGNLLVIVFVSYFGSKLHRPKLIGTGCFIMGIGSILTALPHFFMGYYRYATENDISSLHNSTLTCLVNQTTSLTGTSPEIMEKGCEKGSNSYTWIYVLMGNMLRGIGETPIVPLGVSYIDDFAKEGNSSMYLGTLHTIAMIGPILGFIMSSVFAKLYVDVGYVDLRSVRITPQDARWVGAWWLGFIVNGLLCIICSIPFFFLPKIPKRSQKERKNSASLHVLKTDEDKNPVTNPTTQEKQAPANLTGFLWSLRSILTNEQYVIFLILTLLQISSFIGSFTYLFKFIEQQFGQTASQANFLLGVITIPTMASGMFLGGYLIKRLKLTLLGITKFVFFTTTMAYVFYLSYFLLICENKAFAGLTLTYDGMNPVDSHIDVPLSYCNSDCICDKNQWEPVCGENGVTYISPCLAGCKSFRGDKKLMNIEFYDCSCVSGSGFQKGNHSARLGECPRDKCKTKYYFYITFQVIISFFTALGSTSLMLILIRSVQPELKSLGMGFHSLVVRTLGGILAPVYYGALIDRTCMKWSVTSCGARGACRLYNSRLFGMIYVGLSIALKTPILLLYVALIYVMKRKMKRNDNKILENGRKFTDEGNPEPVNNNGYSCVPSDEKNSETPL
UniProt Q9JIM3: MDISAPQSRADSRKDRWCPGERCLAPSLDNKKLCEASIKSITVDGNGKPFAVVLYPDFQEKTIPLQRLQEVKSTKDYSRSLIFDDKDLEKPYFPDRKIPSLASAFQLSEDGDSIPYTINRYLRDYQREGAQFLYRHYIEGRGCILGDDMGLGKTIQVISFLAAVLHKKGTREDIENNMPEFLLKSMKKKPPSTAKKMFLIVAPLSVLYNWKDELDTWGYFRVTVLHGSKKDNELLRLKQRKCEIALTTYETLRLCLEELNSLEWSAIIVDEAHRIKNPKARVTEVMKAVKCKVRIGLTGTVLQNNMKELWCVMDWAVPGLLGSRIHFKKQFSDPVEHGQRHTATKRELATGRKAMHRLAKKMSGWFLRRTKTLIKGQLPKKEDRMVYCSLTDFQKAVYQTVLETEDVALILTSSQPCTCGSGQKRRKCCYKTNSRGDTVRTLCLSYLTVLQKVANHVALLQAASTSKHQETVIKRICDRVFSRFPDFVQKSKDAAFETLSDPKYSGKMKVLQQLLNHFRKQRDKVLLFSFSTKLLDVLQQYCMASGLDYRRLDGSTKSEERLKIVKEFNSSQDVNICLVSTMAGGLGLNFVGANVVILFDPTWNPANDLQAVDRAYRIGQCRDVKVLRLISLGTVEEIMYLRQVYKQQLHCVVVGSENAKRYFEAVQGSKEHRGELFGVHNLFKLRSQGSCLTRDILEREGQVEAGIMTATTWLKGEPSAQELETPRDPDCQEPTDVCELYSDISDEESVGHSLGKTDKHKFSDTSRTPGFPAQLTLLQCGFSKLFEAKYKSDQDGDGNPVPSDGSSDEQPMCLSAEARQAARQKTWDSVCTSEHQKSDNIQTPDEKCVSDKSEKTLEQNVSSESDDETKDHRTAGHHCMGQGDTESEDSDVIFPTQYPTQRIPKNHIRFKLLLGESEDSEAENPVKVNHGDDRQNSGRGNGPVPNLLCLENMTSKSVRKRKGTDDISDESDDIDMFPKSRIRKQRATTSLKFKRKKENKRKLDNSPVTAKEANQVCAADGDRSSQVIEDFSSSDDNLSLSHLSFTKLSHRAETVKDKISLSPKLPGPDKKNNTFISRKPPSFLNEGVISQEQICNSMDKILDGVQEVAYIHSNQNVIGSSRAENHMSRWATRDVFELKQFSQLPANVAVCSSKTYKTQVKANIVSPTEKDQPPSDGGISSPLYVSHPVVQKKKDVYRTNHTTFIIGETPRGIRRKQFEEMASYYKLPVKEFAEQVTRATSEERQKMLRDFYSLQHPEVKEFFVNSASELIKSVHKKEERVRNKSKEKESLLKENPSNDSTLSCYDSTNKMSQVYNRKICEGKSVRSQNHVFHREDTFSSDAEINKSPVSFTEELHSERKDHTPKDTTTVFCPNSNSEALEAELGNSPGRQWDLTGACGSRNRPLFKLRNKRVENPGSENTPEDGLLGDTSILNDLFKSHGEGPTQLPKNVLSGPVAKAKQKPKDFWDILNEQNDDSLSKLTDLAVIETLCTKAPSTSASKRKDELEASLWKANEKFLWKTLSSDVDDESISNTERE
UniProt Q9JHS9: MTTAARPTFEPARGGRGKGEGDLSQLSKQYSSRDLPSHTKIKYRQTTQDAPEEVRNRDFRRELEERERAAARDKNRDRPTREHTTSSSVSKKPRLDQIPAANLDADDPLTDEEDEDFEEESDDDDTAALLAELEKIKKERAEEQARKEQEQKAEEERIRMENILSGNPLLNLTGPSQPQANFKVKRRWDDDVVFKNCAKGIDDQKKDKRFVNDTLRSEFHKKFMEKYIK
UniProt Q9JIM1: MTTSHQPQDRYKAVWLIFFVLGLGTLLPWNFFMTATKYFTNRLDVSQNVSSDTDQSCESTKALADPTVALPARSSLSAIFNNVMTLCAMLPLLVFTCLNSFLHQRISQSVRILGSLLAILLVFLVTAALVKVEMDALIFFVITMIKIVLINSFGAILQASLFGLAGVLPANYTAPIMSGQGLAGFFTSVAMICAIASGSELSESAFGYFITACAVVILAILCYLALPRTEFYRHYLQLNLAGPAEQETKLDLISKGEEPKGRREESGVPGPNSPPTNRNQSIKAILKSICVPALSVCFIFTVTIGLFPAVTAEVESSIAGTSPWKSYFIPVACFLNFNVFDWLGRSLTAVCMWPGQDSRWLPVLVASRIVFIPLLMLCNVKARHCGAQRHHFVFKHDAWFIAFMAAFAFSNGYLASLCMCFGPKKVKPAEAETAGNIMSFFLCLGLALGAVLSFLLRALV
UniProt Q9ESK9, whole entry: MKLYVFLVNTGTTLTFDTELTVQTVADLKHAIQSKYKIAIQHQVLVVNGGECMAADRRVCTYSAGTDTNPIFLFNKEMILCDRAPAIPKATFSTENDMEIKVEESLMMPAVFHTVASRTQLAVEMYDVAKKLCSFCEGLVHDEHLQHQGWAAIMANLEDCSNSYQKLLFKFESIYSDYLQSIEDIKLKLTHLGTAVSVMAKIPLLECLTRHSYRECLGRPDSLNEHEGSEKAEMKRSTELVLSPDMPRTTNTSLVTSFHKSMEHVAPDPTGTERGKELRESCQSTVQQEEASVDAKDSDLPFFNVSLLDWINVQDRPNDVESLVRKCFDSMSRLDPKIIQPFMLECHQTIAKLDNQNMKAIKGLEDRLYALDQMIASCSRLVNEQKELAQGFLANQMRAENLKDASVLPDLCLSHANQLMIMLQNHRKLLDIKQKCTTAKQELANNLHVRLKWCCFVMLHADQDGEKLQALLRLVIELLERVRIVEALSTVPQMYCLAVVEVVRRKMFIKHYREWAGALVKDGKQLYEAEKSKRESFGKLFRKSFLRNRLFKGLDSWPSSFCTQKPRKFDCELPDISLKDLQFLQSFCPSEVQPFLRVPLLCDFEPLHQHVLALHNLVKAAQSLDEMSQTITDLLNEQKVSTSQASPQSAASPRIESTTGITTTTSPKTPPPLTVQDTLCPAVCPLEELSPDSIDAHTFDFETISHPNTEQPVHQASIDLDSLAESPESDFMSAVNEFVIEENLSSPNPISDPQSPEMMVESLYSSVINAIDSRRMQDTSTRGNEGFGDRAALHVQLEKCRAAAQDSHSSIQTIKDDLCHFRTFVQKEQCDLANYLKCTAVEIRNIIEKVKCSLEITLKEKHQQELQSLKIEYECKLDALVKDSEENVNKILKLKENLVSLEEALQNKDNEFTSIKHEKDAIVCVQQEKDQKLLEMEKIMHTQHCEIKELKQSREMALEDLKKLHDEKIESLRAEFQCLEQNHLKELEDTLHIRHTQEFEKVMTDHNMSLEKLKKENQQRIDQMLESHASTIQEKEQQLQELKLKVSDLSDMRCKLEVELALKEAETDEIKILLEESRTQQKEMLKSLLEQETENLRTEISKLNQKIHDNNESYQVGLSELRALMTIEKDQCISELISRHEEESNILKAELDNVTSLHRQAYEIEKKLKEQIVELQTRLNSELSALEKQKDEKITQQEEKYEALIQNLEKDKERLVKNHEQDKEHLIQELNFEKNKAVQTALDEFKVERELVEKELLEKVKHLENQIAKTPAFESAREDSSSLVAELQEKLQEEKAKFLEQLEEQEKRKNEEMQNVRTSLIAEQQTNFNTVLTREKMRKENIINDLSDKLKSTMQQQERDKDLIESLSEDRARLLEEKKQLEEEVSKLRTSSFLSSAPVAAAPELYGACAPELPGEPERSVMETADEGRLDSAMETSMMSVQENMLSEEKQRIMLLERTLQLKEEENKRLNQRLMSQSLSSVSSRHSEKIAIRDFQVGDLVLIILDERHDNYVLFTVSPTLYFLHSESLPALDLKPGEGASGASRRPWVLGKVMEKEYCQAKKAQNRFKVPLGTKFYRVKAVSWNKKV
UniProt Q9JLY0: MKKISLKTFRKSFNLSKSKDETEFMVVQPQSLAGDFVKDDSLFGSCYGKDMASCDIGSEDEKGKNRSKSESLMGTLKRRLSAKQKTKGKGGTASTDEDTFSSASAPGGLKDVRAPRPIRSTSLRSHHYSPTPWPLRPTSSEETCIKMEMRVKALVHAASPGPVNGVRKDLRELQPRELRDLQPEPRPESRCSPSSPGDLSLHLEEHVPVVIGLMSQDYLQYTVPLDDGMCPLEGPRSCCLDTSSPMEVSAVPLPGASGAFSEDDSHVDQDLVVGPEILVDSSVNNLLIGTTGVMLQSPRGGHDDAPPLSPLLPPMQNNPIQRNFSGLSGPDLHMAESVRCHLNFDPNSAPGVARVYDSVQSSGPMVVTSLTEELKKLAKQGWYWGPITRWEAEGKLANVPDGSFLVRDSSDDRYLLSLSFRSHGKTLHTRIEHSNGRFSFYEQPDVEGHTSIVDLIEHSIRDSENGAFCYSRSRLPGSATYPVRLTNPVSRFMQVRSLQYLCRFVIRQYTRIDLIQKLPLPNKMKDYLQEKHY
UniProt Q9QXA5: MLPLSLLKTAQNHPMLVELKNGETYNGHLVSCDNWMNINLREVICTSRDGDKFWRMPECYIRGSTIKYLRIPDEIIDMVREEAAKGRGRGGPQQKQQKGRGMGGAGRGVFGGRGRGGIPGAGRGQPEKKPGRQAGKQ
UniProt Q9JJA2: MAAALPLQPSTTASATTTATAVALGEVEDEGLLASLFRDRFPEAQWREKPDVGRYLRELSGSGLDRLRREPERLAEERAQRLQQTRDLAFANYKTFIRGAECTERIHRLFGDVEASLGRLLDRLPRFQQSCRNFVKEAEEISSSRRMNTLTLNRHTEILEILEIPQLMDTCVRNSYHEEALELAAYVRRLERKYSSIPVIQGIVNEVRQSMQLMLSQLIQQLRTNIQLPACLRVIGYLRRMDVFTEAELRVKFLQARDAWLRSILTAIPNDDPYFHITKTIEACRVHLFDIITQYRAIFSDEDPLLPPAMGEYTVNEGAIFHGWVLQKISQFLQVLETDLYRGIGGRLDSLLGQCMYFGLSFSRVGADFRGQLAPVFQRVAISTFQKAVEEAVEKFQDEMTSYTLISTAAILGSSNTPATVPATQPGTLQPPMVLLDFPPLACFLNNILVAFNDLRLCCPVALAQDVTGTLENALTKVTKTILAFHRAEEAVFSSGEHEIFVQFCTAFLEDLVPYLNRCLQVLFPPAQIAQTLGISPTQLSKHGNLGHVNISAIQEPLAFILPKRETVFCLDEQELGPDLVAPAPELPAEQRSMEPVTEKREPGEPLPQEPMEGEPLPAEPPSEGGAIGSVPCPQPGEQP
UniProt Q9ERV1: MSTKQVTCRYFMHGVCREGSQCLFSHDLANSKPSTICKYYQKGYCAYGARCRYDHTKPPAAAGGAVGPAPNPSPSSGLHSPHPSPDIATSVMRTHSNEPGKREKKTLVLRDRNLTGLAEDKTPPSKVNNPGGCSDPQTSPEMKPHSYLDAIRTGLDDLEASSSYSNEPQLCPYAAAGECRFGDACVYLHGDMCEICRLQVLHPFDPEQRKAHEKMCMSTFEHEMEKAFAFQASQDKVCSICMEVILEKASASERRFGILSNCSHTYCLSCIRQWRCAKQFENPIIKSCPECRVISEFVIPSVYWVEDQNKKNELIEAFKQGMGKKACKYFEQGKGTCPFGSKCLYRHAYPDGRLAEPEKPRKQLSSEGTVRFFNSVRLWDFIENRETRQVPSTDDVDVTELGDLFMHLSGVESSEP
UniProt Q9JMD3: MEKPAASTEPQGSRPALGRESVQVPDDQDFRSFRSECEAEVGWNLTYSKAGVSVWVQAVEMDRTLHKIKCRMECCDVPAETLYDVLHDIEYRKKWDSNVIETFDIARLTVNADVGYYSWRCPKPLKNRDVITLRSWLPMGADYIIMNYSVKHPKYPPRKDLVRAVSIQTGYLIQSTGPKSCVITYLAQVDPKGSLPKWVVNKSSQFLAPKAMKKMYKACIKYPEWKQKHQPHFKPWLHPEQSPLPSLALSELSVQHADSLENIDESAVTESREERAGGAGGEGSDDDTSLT

The targets below were run with CN[C@@H]1C[C@H]2O[C@@](C)([C@@H]1OC)n1c3ccccc3c3c4c(c5c6ccccc6n2c5c31)C(=O)NC4 [staurosporine] (assay: log2 fold change of tryptic peptide abundance, ligand vs vehicle (limited proteolysis) (log2 ratio); higher = more trypsin-susceptible (destabilized)). Settings: ligand concentration: 20 uM; sample: mouse liver crude lysate; replicate design: treated separately.

Target | log2 fold change
UniProt Q9JJL3 (peptide sequence: NSASLHVLK, peptide start residue: 287) | -0.12
UniProt Q9JJI8 (peptide sequence: CSRYLYTLVITDKEK, peptide start residue: 38) | 0.374
UniProt Q9JIM3 (peptide sequence: EANQVCAADGDR, peptide start residue: 1012) | 0.238
UniProt Q9JHS9 (peptide sequence: YRQTTQDAPEEVR, peptide start residue: 43) | -0.309
UniProt Q9JIM1 (peptide sequence: REESGVPGPNSPPTNR, peptide start residue: 263) | -0.275
UniProt Q9ESK9 (peptide sequence: SVMETADEGR, peptide start residue: 1420) | 0.543
UniProt Q9JLY0 (peptide sequence: SLQYLCR, peptide start residue: 497) | -0.207
UniProt Q9QXA5 (peptide sequence: DGDKFWR, peptide start residue: 49) | -0.256
UniProt Q9JJA2 (peptide sequence: HGNLGHVNISAIQEPLAFILPKR, peptide start residue: 543) | -1.05
UniProt Q9ERV1 (peptide sequence: LAEPEKPR, peptide start residue: 354) | -0.123
UniProt Q9JMD3 (peptide sequence: KKWDSNVIETFDIAR, peptide start residue: 93) | -0.422

Looked up above:
Under log2 fold change, UniProt Q9JJL3 (peptide sequence: NSASLHVLK, peptide start residue: 287) has -0.12
Under log2 fold change, UniProt Q9JJA2 (peptide sequence: HGNLGHVNISAIQEPLAFILPKR, peptide start residue: 543) has -1.05
